Experimental data taken from PMC5312389.

Sequences of proteins named here, by UniProt entry; tags and fusion partners are left off. A change or cut given only in a name is not applied to a line headed by its entry.
UniProt Q09472: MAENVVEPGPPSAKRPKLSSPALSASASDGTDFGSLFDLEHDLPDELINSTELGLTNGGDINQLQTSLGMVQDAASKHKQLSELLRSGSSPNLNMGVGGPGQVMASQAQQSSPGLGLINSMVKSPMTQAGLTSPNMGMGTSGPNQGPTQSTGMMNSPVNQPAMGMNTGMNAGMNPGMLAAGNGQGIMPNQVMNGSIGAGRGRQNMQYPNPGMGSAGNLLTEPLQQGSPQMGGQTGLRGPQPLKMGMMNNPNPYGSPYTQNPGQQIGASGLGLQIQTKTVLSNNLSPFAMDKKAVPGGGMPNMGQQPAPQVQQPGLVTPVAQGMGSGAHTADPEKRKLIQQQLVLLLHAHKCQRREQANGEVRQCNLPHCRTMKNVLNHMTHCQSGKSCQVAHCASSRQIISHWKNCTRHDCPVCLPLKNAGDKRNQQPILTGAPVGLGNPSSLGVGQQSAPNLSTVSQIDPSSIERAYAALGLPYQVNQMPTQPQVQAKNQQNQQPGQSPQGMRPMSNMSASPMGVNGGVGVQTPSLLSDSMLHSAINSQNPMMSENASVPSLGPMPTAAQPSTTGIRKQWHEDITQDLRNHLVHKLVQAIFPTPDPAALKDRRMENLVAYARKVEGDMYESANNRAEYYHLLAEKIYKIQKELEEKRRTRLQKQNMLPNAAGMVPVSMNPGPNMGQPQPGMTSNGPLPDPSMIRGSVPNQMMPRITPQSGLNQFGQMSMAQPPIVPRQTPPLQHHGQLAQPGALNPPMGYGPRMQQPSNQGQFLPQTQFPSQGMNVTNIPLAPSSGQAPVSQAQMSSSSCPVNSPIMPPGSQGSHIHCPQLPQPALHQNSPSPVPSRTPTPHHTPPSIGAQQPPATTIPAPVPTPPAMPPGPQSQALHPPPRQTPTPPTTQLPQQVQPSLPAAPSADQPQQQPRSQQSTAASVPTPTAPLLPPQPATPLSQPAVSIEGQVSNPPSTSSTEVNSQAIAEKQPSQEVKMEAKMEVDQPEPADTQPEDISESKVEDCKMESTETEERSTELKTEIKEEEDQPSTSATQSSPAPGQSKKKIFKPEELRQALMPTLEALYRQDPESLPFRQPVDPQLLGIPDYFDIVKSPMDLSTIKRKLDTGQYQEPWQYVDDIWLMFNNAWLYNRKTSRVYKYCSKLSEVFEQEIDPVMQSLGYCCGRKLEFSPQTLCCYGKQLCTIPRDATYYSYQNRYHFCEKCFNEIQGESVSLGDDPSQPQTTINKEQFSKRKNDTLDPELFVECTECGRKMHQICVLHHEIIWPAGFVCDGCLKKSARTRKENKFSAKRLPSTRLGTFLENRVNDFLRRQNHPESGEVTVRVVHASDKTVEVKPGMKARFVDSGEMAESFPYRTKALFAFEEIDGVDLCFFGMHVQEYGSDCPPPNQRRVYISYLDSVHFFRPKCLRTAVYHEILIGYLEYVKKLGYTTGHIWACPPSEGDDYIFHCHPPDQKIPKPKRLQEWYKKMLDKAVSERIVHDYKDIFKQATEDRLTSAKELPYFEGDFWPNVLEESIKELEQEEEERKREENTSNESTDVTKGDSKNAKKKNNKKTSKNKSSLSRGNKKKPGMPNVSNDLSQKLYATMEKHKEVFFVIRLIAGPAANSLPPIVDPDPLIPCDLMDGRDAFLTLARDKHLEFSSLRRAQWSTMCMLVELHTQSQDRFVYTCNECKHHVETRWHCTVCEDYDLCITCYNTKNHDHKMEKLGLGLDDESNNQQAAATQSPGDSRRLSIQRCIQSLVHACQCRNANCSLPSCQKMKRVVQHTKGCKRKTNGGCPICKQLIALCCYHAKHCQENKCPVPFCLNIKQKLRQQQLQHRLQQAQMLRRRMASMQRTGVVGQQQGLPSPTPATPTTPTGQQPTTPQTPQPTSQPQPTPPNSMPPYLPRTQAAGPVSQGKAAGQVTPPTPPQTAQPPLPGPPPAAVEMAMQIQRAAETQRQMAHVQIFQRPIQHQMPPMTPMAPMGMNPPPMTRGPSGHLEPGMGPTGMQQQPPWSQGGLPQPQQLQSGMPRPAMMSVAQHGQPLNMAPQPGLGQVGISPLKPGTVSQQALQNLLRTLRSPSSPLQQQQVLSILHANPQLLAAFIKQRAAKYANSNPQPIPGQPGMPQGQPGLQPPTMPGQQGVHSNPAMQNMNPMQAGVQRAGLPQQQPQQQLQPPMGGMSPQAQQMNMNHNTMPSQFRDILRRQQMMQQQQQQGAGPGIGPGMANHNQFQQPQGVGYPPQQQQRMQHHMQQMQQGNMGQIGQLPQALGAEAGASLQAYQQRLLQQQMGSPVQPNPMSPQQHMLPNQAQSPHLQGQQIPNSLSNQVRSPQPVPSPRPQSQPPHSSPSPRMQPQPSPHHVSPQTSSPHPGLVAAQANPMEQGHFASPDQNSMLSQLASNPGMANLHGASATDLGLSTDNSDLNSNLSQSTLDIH

Legend:
[1] = biological target: T1, FLAG-FOXM1 wild type, expressed in HEK293T cells (UniProt Q08050); assay: co-IP; HEK293T cells transfected with FLAG-FOXM1-WT or FLAG-FOXM1-5KR; immunoprecipitation with anti-FLAG, blots with anti-FLAG and anti-p300
T1 sequence: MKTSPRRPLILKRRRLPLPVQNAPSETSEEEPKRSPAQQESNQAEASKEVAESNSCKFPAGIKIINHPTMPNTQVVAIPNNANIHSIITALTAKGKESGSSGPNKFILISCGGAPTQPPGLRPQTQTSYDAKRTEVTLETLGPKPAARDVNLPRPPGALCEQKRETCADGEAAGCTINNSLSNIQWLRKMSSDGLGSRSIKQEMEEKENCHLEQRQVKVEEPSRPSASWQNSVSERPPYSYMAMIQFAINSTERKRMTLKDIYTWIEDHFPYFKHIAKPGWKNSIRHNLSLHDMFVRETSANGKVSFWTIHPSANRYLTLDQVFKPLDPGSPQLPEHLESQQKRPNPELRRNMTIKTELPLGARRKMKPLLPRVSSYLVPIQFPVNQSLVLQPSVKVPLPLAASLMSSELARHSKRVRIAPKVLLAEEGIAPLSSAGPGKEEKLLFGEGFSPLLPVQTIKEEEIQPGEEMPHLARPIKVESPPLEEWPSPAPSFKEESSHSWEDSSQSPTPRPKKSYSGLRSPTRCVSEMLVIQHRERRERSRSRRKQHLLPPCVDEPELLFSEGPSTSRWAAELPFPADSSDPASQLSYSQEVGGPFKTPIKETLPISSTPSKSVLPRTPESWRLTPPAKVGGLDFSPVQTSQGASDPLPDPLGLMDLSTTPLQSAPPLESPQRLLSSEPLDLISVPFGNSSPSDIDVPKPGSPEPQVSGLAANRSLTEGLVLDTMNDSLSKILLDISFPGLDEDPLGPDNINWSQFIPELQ

[2] = biological target: T2, FLAG-FOXM1-5KR, expressed in HEK293T cells (UniProt Q08050); assay: as above
T2 sequence: T1 sequence with K63R, K422R, K440R, K603R, K614R

“p300, in HEK293T cells (called CBP in the text on Figure 3D) (from UniProt Q09472)” was tested, and the binding [1] was “binds” and the binding [2] was “binds”.

Where a chain is given by its changes, count along the chain named. Results are given in words; binding and its absence hold for the method and conditions named. In cells and extracts the contact can be indirect. A result given as binding can be weak or reduced; the word gives no strength. Sequences can lack the tags named with a protein.
